Assay results as given in PMC10774338.
Where a chain is given by its changes, count along the chain named. Results are given in words; binding and its absence hold for the method and conditions named. In cells and extracts the contact can be indirect. Some results given as binding are weak or reduced against the parent protein; the word gives no strength. Where a sequence is shown, tags or fusion partners need not be part of it.

Amino acid sequences for entries named in this document (tags omitted).
UniProt P62491: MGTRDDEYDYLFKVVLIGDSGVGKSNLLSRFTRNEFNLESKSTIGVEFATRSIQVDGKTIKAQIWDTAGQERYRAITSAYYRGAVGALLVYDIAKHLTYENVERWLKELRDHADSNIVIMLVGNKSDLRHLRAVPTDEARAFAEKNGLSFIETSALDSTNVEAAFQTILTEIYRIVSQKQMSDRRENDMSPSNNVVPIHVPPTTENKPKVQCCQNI

Experiments:
[1] = biological target: T1, Myc-tagged WDR44 G782C (human) (UniProt Q5JSH3); assay: co-IP; GFP-RAB11A and Myc-WDR44 wild-type or variant coexpressed in 293T for 48 h; Myc-tagged proteins immunoprecipitated from lysate (150 mM NaCl, 20 mM Tris HCl pH 8.0, 10% glycerol, 1% Triton X-100; Protein G Sepharose), blots probed for GFP and Myc; also done after 3 h and 24 h serum starvation (wild-type, G782C, S764F)
T1 sequence: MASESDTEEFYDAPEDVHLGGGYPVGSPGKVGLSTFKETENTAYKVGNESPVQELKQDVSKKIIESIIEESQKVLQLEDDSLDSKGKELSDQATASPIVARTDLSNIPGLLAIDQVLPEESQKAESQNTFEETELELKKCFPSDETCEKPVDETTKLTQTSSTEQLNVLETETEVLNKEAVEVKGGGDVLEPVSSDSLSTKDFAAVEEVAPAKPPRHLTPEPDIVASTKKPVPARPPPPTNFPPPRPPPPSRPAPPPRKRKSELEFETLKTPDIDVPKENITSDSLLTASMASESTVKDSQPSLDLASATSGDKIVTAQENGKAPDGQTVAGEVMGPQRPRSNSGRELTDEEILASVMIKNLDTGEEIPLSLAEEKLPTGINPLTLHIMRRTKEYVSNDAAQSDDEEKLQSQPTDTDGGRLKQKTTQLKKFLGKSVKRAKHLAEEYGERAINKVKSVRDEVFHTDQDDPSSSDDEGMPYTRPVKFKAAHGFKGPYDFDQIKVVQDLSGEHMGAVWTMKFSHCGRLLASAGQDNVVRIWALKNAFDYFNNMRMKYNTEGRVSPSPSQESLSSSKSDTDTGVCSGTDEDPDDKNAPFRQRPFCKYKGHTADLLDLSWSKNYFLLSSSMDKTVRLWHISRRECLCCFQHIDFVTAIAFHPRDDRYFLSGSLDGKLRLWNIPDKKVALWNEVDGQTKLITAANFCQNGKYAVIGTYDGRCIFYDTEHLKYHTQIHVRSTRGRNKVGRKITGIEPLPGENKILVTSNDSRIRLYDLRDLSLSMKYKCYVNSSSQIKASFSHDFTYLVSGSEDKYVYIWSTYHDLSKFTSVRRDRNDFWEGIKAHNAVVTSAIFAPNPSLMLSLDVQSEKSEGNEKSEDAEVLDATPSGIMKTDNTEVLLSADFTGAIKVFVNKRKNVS

[2] = biological target: T2, Myc-tagged WDR44 N840S (human) (UniProt Q5JSH3); assay: as above
T2 sequence: T1 sequence with C782G, N840S

GFP-tagged RAB11A (from UniProt P62491 1-216)
binding [1]: binds
binding [2]: binds
